No constants are given. Whether binding was seen depends on the method and setting. In cells and extracts the contact can be indirect. Some results given as binding are weak or reduced against the parent protein; the word gives no strength.
Biological target: endogenous RCAN1 (human (endogenous in HEK293)) (UniProt P53805)
Experiment: co-IP; untransfected HEK293 cells, endogenous proteins; DCT3 antibody against the RCAN1 C terminus as pull-down antibody, anti-IκBα as detection antibody (Figure 6c)

Chains of the proteins cited; added tags and fusions are not shown.
UniProt P53805: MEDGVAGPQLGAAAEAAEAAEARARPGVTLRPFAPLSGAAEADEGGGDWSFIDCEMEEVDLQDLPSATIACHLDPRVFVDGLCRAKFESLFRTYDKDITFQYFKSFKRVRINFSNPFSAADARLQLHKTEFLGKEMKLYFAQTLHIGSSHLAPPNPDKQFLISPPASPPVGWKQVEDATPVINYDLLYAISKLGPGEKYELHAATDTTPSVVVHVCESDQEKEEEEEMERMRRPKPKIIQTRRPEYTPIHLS
UniProt P25963: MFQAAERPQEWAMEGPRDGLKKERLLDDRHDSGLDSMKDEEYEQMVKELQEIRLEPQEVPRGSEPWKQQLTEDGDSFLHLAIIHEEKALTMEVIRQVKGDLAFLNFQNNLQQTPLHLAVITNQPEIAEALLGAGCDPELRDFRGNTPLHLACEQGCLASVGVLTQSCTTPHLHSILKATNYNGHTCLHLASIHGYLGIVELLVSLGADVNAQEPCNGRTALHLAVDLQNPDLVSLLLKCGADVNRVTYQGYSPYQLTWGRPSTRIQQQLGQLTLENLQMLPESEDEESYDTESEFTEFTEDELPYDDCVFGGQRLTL

binding: binds
Substance: inhibitor of κBα (IκBα), endogenous (from UniProt P25963 1-317)

Reference: paper PMC4632290
